These are yes or no findings as the source states them, for the method shown.
Molecular target: SAG1t (untargeted D1D2 domains of the Toxoplasma gondii surface antigen SAG1) (Toxoplasma gondii) (UniProt P13664)
Assay: SEC; Superdex 75 10/300 GL column, Akta purifier, 0.5 nmol of each purified protein loaded; both purified

Amino acid sequences for entries named in this document (tags omitted). Residues count along the entry.
UniProt P13664, residues 48-302: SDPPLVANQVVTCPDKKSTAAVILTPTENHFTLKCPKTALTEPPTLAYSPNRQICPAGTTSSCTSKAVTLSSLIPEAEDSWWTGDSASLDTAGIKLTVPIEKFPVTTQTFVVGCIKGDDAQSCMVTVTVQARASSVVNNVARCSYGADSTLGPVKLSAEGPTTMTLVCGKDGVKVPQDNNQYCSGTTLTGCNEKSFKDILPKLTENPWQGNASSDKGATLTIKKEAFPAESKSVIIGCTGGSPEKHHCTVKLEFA

Question: Which binding does the source give for “SAG1t (untargeted D1D2 domains of the Toxoplasma gondii surface antigen SAG1) (from UniProt P13664 48-302) (domain or fragment)” here?
Answer: Its binding is “no binding (tested: 0.5 nmol loaded)”.

Source: article PMC5826183
